This is one part of the list. The main result of the screen is listed elsewhere. These columns were measured beside it and carry no call. The list favours compounds with an active or inconclusive main result. The note in brackets gives the kind of curve behind each potency; many fits are weak.
Test: qHTS Assay for Modulators of Lamin A Splicing
Conditions: HeLa LMNA splicing GFP/RFP minigene ratio, 48 h
Method in brief: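 S3 HeLa stable clones carrying a lamin A-EGFP splicing minigene plus DsRed2 were seeded at 600 cells/well in Opti-MEM with 2% FBS, pin-dosed and incubated 48 h at 37°C. Acumen cytometry (488 nm) gave the GFP/RFP total-intensity ratio.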

[1] = measured here: GFP splicing reporter channel
[2] = measured here: RFP viability control channel

Structure (SMILES): Cc1ccc(CNC(=O)c2ccc3c(c2)NC(=O)C(CS(=O)(=O)Cc2cccc(C)c2)N3)cc1 (stereo not drawn)
- AC50 [1]: 35.5 µM [falling, single point]
- AC50 [2]: 35.5 µM [falling, single point]

Structure (SMILES): Nc1ncnc2c1ncn2[C@@H]1O[C@@H](CO)[C@H](O)[C@H]1O
- AC50 [1]: 0.794 µM [falling, full curve, poor fit]

Structure (SMILES): CC(=O)Nc1cccc(-c2csc(Nc3cc(C)ccn3)n2)c1
- AC50 [1]: 20 µM [falling, single point]
- AC50 [2]: 35.5 µM [falling, single point]

Structure (SMILES): Cc1cc(Nc2cccc(F)c2)nc(-c2ccccc2O)n1
- AC50 [2]: 14.1 µM [rising, single point]

Structure (SMILES): Cc1ccc(C)c(OCC(=O)Nc2nonc2NC(=O)COc2cc(C)ccc2C)c1
- AC50 [1]: 20 µM [rising, single point]

Structure (SMILES): Cc1ccc(-c2nc(-c3cccnc3)sc2CC(=O)Nc2ccc3nc(C)sc3c2)cc1
- AC50 [2]: 0.0794 µM [rising, partial curve]

Structure (SMILES): CCCCCN1CC(O)=C(c2nc3ccccc3[nH]2)C1=N
- AC50 [1]: 0.0398 µM [rising, full curve, poor fit]

Structure (SMILES): CCOC(=O)c1c(NC(=O)CSc2nncs2)sc(C)c1-c1ccccc1
- AC50 [1]: 17.8 µM [rising, partial curve, poor fit]
- AC50 [2]: 15.8 µM [rising, partial curve]

Structure (SMILES): CCN(CC)CC(O)COCCC12CC3CC(CC(C3)C1)C2 (stereo not drawn)
- AC50 [1]: 17.8 µM [rising, single point]
- AC50 [2]: 20 µM [rising, single point]

Structure (SMILES): O=C(c1ccc2ccccc2c1)C1CCCN(S(=O)(=O)c2cccnc2)C1 (stereo not drawn)
- AC50 [1]: 14.1 µM [falling, partial curve]
- AC50 [2]: 17.8 µM [falling, partial curve]

Structure (SMILES): COc1cc2c3nnc(-c4ccc(F)cc4)c-3cn(Cc3cccc(F)c3)c2cc1OC
- AC50 [2]: 0.0708 µM [falling, single point]

Structure (SMILES): CN(C)c1cccc(C(=O)NNC(=S)NC2CC3CCC2C3)c1 (stereo not drawn)
- AC50 [1]: 7.94 µM [falling, partial curve, poor fit]

Structure (SMILES): CCn1c(=O)cc(OCC(=O)Nc2ccc(C)cn2)c2ccccc21
- AC50 [2]: 28.2 µM [falling, partial curve]

Structure (SMILES): O=C(Cc1ccc(Nc2nc3ccc(Br)cc3[nH]2)cc1)NCCc1cccs1
- AC50 [2]: 12.6 µM [rising, single point]

Structure (SMILES): Cc1cc(C(=O)COC(=O)Cc2n[nH]c(=O)c3ccccc23)c(C)n1-c1ccc2c(c1)OCO2
- AC50 [1]: 20 µM [rising, single point]
- AC50 [2]: 28.2 µM [rising, single point]

Structure (SMILES): Cn1c(CO)c(-c2ccccc2)c2cc([N+](=O)[O-])ccc21
- AC50 [2]: 5.01 µM [rising, partial curve, poor fit]

Structure (SMILES): COc1ccc(CN2CCN(C(=O)c3ccco3)CC2)cc1OCc1ccccc1
- AC50 [1]: 35.5 µM [rising, single point]
- AC50 [2]: 35.5 µM [rising, single point]

Structure (SMILES): CN(C)Cc1ccccc1C1(O)c2ccccc2CSc2ccccc21 (stereo not drawn)
- AC50 [1]: 35.5 µM [rising, single point]
- AC50 [2]: 15.8 µM [rising, single point]

Structure (SMILES): COc1ccc(-c2csc(=Nc3ccccc3)n2CCO)cc1
- AC50 [1]: 0.0398 µM [rising, full curve]
- AC50 [2]: 15.8 µM [rising, partial curve]

Structure (SMILES): COC(=O)C1=C(C)N(CCc2cc(OC)c(OC)c(OC)c2)C(=O)N[C@H]1c1cccs1
- AC50 [2]: 20 µM [rising, single point]

Structure (SMILES): Cc1ccc(S(=O)(=O)N2CCCC2C(=O)NCCc2nc3ccccc3[nH]2)cc1 (stereo not drawn)
- AC50 [2]: 15.8 µM [rising, single point]

Structure (SMILES): COc1ccccc1N1CCN(CCCNc2cc(=O)n(C)c(=O)n2C)CC1
- AC50 [1]: 0.891 µM [falling, single point]
- AC50 [2]: 0.501 µM [falling, partial curve, poor fit]

Structure (SMILES): CCN1CCc2c(sc(NC(=O)Nc3ccc(Cl)c(Cl)c3)c2C(N)=O)C1
- AC50 [1]: 17.8 µM [falling, single point]
- AC50 [2]: 15.8 µM [falling, single point]

Structure (SMILES): C=C(C)C1CCC(C)=C1CC(C)(C)/C=N\n1cnnc1 (stereo not drawn)
- AC50 [2]: 3.98 µM [rising, partial curve, poor fit]

Structure (SMILES): O=C(c1ccccc1)C1CCN(CC(=O)N2CCN(c3ccccc3)CC2)CC1
- AC50 [2]: 0.01 µM [falling, full curve, poor fit]

Structure (SMILES): CC(=O)N1CCN(c2ccc(NC(=O)c3cccc(OCc4ccccc4)c3)cc2)CC1
- AC50 [2]: 11.2 µM [rising, partial curve]

Structure (SMILES): Cc1cc(C)c2c(n1)nn1c(-n3ccnc3)cc(C)nc21
- AC50 [2]: 12.6 µM [rising, partial curve]

Structure (SMILES): O=C(NNC(=O)C1CCN(S(=O)(=O)c2cccc(C(F)(F)F)c2)CC1)C1CC1
- AC50 [1]: 20 µM [falling, single point]

Structure (SMILES): COc1ccc(CNc2cc(-c3ccccc3OC)ncn2)c(OC)c1
- AC50 [1]: 7.94 µM [falling, partial curve, poor fit]

Structure (SMILES): CCC(C(=O)NC1CCCC1)n1c(SCc2cccc(C)c2)nc2ccncc21 (stereo not drawn)
- AC50 [2]: 2.51 µM [rising, partial curve, poor fit]

Structure (SMILES): CCOc1cccc(C(=O)Nc2ccc(N(CC)CC)cc2)c1
- AC50 [2]: 22.4 µM [rising, single point]

Structure (SMILES): CCCCNC(=O)c1ccccc1NC(=O)c1ccc2c(c1)OCO2
- AC50 [1]: 0.0224 µM [falling, full curve]
- AC50 [2]: 0.1 µM [falling, full curve]

Structure (SMILES): O=[N+]([O-])c1cccc(/C([O-])=C(/C(=S)Nc2ccccc2)[n+]2ccccc2)c1
- AC50 [2]: 6.31 µM [rising, single point]

Structure (SMILES): Cc1ccc(C(=O)NCC(=O)OCc2cc(=O)n3nc(C4CC4)sc3n2)cc1
- AC50 [1]: 10 µM [rising, partial curve, poor fit]

Structure (SMILES): O=c1c2ccccc2c(C=NCc2ccccn2)c(O)n1-c1ccccc1Cl
- AC50 [1]: 0.0562 µM [rising, full curve, poor fit]

Structure (SMILES): CCOP(=O)(OCC)C(Nc1cccc(C(F)(F)F)c1)c1ccc(C)cc1 (stereo not drawn)
- AC50 [1]: 5.62 µM [falling, single point]

Structure (SMILES): COc1ccc(N/C=C\C(=O)c2ccc(C)cc2)cc1OC
- AC50 [1]: 0.126 µM [rising, full curve, poor fit]

Structure (SMILES): Cc1ccc(C)c(CSc2nnc(-c3cccs3)n2Cc2ccco2)c1
- AC50 [1]: 15.8 µM [falling, single point]
- AC50 [2]: 15.8 µM [falling, partial curve, poor fit]

Structure (SMILES): COc1cc2nc(N(C)C)nc(N)c2cc1OC
- AC50 [1]: 12.6 µM [rising, partial curve, poor fit]
- AC50 [2]: 15.8 µM [rising, partial curve]

Structure (SMILES): COc1ccc(-c2nc3c(c4c2C[C@H](c2ccccc2)OC4)CN(S(=O)(=O)c2ccc(C#N)cc2)CC3)c(C)c1
- AC50 [1]: 1.78 µM [rising, partial curve, poor fit]

Structure (SMILES): Nc1nnc(SCC(=O)c2ccc([N+](=O)[O-])cc2)s1
- AC50 [1]: 0.891 µM [falling, full curve, poor fit]

Structure (SMILES): CC1(C)Cc2ccccc2C(N/N=C/c2ccc([N+](=O)[O-])cc2)=N1
- AC50 [2]: 35.5 µM [falling, single point]

Structure (SMILES): CC1(c2ccc3noc(-c4ccc(F)cc4)c3c2)OCCO1
- AC50 [2]: 20 µM [rising, single point]

Structure (SMILES): CCOn1c(=O)c(=O)n(O)c2ccccc21
- AC50 [2]: 4.47 µM [falling, full curve, poor fit]

Structure (SMILES): O=C(NCCOC(=O)c1cccs1)c1cccnc1
- AC50 [2]: 0.0562 µM [rising, partial curve]

Structure (SMILES): NNC(=O)C1CCCN1S(=O)(=O)c1ccc(Cl)cc1 (stereo not drawn)
- AC50 [1]: 0.00794 µM [rising, full curve, poor fit]

Structure (SMILES): O=C(c1ccc(Cl)c(S(=O)(=O)N2CCCC2)c1)N1CCN(c2ccccn2)CC1
- AC50 [2]: 14.1 µM [rising, single point]

Structure (SMILES): O=c1sc2ccccc2c(N2CCCCC2)c1[N+](=O)[O-]
- AC50 [2]: 0.0224 µM [falling, full curve, poor fit]

Structure (SMILES): COc1ccc(S(=O)(=O)Nc2ccc(F)cc2)cc1N(C)S(=O)(=O)c1ccc(Cl)cc1
- AC50 [1]: 17.8 µM [falling, partial curve, poor fit]
- AC50 [2]: 11.2 µM [falling, single point]

Structure (SMILES): CN(C(=S)Nc1ccc(Oc2ccccc2)cc1)C1CCCCC1
- AC50 [1]: 17.8 µM [rising, single point]
- AC50 [2]: 31.6 µM [rising, single point]

Structure (SMILES): N#CCC(=O)NCCCOC(=O)Nc1ccc(Cl)c(Cl)c1
- AC50 [2]: 15.8 µM [rising, partial curve]

Structure (SMILES): C=C(C)CSc1nnc([C@@H](NC(=O)OC(C)(C)C)C(C)CC)o1 (stereo partly drawn)
- AC50 [2]: 11.2 µM [rising, partial curve, poor fit]

Structure (SMILES): COc1ccc(-c2ccc(S(=O)(=O)NCC3CCCO3)cc2)cc1 (stereo not drawn)
- AC50 [1]: 2.24 µM [rising, full curve, poor fit]
- AC50 [2]: 5.01 µM [rising, full curve]

Structure (SMILES): Cc1ccccc1OCC(=O)NNC(=S)NC(=O)c1ccccc1[N+](=O)[O-]
- AC50 [2]: 35.5 µM [rising, single point]

Structure (SMILES): O=C(C[n+]1cc(-c2ccc(Cl)c(Cl)c2)n2c1CCC2)N1c2ccccc2Sc2ccccc21
- AC50 [2]: 31.6 µM [rising, single point]

Structure (SMILES): O=C(NCc1ccccc1Cl)c1ccc(NC(=O)c2nsc3ccccc23)cc1
- AC50 [1]: 0.282 µM [rising, full curve, poor fit]

From PubChem BioAssay AID1487 (National Center for Advancing Translational Sciences (NCATS), 2009)
